Data reported in PubChem BioAssay AID720533 (National Center for Advancing Translational Sciences (NCATS), 2013).
Where “and” joins values, the source holds several entries; their conditions need not be identical. Identical values can stand only once. Among all 18,000 compounds or so, about 750 (4.2%) were called active. The inconclusive results got no clear call from the source; some entries with a clear call stand among them for comparison. Calls come from the whole dose curve; tested in HEK293 cells. Where the call is inconclusive, the potency comes from a doubtful curve fit.

Test: qHTS for Inhibitors of binding or entry into cells for Lassa Virus
Conditions: Lassa virus pseudotyped entry inhibition, cell-based qHTS; activity change, negative = inhibition: at 49.2 µM (top of the series) unless noted
% is set by controls: 0 for no effect and ±100 for the full control effect; potency is the fitted concentration of half-maximal effect.

Structure (SMILES)	Potency	activity change, negative = inhibition
Cc1cc(C(=O)Nc2cccc(-c3nc(CNC(=O)c4ccccc4C(F)(F)F)c(C)o3)c2)c(C)o1	inconclusive: 35.5 µM [inhibitor, single point]	
CON=C1C[C@]2(C[C@@H]3C[C@@H](C/C=C(\C)C[C@@H](C)/C=C/C=C4\CO[C@@H]5[C@H](O)C(C)=C[C@@H](C(=O)O3)[C@]45O)O2)O[C@H](/C(C)=C/C(C)C)[C@H]1C	active: 14.1 µM and active: 31.6 µM	
COc1cc2c(cc1OC)-c1c(OC)c(OC)cc3ccnc(c13)C2=O	inconclusive: 15.8 µM [inhibitor, partial curve]	
COc1cc(C)c(NC(=O)CN(C)C)cc1Nc1nc(Nc2cccc(F)c2C(N)=O)c2cc[nH]c2n1	inconclusive: 2.5 µM [inhibitor, partial curve, poor fit]	
C[C@H]1O[C@@H](O[C@H]2CC[C@@]3(C)[C@H](CC[C@@H]4[C@@H]3C[C@@H](O)[C@]3(C)[C@@H](C5=CC(=O)OC5)CC[C@]43O)C2)C[C@H](O)[C@@H]1O[C@H]1C[C@H](O)[C@H](O[C@H]2C[C@H](O)[C@H](O[C@@H]3O[C@H](CO)[C@@H](O)[C@H](O)[C@H]3O)[C@@H](C)O2)[C@@H](C)O1	active: 0.355 µM	
COc1c(C=O)c(O)cc2c1C(=O)c1ccccc1C2=O	inactive	
CCc1cc(-c2oncc2-c2ccc(OC)cc2)c(O)cc1OC	inconclusive: 2.51 µM [inhibitor, partial curve, poor fit]	
NCCCCCCCCCCNS(=O)(=O)c1cccc2c(Cl)cccc12	inconclusive: 39.8 µM [inhibitor, single point]	
Cc1cccc([C@H]2[C@@H]3C=CC(C)C[C@@H]3C(=O)N2Cc2ccccc2)c1 (stereo partly specified)	inconclusive: 20 µM [inhibitor, partial curve, poor fit]	
O=C1c2cccc3c2[C@H](CCC3)CN1[C@@H]1CN2CCC1CC2	inconclusive: 35.5 µM [inhibitor, single point]	
Nc1ncnc2c1ccn2[C@@H]1O[C@H](CO)[C@@H](O)[C@H]1O	active: 2.51 µM	
NC(Cc1ccc(N(CCCl)CCCl)cc1)C(=O)O (stereo unspecified)	inconclusive: 35.5 µM [inhibitor, single point]	
COC(=O)N1[C@H]2CC[C@@]3(C)C=C(C)O[C@]1(C)C3c1ccccc12	inconclusive: 20 µM [inhibitor, single point]	
CSc1ccccc1C(=O)NCc1nc(-c2cccc(NC(=O)c3ccoc3C)c2)oc1C	inconclusive: 35.5 µM [inhibitor, single point]	
Cc1cc2oc(=O)cc(-c3ccccc3)c2c(C)c1-c1ccc(OC(F)(F)F)cc1	inconclusive: 3.55 µM [inhibitor, single point]	
COc1cccc(-c2nc3cc4c(cc3cc2CN(C(=O)c2cc(C)nn2C)C2CC2)CCC4)c1OC	inconclusive: 15.8 µM [inhibitor, single point]	
CC1CC2(C)Oc3ccccc3C3OCC1(COC(=O)Nc1ccccc1)C(C)C32 (stereo unspecified)	inconclusive: 15.8 µM [inhibitor, partial curve]	
COc1ccc(C2/C=C\CC(OCc3ccccc3)CC(=O)N2Cc2cccc(F)c2)cc1 (stereo unspecified)	inconclusive: 17.8 µM [inhibitor, partial curve, poor fit]	
O=C1C(SCCO)=C(SCCO)C(=O)c2ccccc21	active: 12.6 µM and active: 8.91 µM	

Structure (SMILES)	Potency	activity change, negative = inhibition
O=c1cc(-c2ccccc2)[nH]c2cc(Cl)ccc12	inconclusive: 0.224 µM [inhibitor, full curve]	
CC[C@@]1(O)C(=O)OCc2c1cc1n(c2=O)Cc2cc3c(O)cccc3nc2-1	inconclusive: 3.16 µM [inhibitor, full curve, poor fit] and inconclusive: 79.4 nM [inhibitor, full curve, poor fit]	
CN1CCC(OC(c2ccccc2)c2ccccc2)CC1	inconclusive: 12.6 µM [inhibitor, single point]	
O=c1cc(CN2CCN(c3ccccc3)CC2)c2ccccc2o1		inconclusive: -54.8% [inhibitor]
C/C(O)=C1\C(=O)[C@@H]2[C@H]3c4c[nH]c5cccc(c45)C[C@H]3C(C)(C)N2C1=O	inconclusive: 12.6 µM [inhibitor, partial curve]	
Nc1ccc2c3c(cccc13)C(=O)NC2=O	inconclusive: 5.01 µM [inhibitor, single point]	
Clc1ccc(Nc2nnc(Cc3ccncc3)c3ccccc23)cc1	inconclusive: 35.5 µM [inhibitor, partial curve, poor fit]	
COc1cc2c(cc1OC)CN(C(=O)[C@@H]1C[C@H](NCc3cn(C)c4ccccc34)CN1C1Cc3ccccc3C1)CC2	inactive	
CCCCCCOc1ccc(C(=N)N(CCCC)CCCC)c2ccccc12	active: 12.6 µM	
CN(C/C=C/C#CC(C)(C)C)Cc1cccc2ccccc12	inconclusive: 31.6 µM [inhibitor, single point] and inconclusive: 35.5 µM [inhibitor, single point]	
Cc1cccc(C)c1N(CCCc1cccnc1)C(=O)C(C)N (stereo unspecified)	inconclusive: 12.6 µM [inhibitor, full curve]	
C[C@]12CCC3c4ccc(O)cc4CCC3C1CCC2OC(=O)CCC1CCCC1 (stereo partly specified)	inactive	
COCC(=O)Nc1cc(Sc2ccccc2)ccc1N=C(NC(=O)OC)NC(=O)OC	inconclusive: 17.8 µM [inhibitor, partial curve, poor fit]	
CCN(CC)CCCCN1c2ccccc2Oc2ccc(Cl)cc21	inconclusive: 35.5 µM [inhibitor, single point]	
Nc1ncc(-c2cccc(S(N)(=O)=O)c2)c2scc(-c3ccc(F)c(Cl)c3)c12	inconclusive: 22.3 µM [inhibitor, partial curve, poor fit]	
COc1ccc(OC)c(-c2cc(Cl)c3c(c2)CC(CNC(=O)C(C)N2CCOCC2)O3)c1 (stereo unspecified)	inactive	
CC[C@@H]([C@H](C)O)n1ncn(-c2ccc(N3CCN(c4ccc(OC[C@@H]5CO[C@@](Cn6cncn6)(c6ccc(F)cc6F)C5)cc4)CC3)cc2)c1=O	inconclusive: 15.8 µM [inhibitor, partial curve]	
COc1ccc(O[C@H]2C=C[C@@H](c3ccccc3)O[C@H]2CON=C2c3cc(OC)ccc3O[C@H](c3cccc(OC)c3)[C@H]2O)cc1		inconclusive: -31.2% [inhibitor] [at 8.59 µM]
CCCN1CCc2cccc3c2C1Cc1ccc(O)c(O)c1-3 (stereo unspecified)	inconclusive: 35.5 µM [inhibitor, single point]	

Structure (SMILES)	Potency	activity change, negative = inhibition
CC(=O)OC[C@H]1O[C@H](CCON=C(C)CCC(=O)OC[C@H]2O[C@H](C#Cc3ccccc3)C=C[C@H]2Oc2ccc(C)cc2)C=C[C@H]1OC(C)=O		inactive: 4.64% [at 8.59 µM]
CN1Cc2c(ccc3c2OCO3)C2C(O)Cc3cc4c(cc3C21)OCO4 (stereo unspecified)	inconclusive: 4.47 µM [inhibitor, full curve, poor fit]	
COC(=O)C1=C(C(=O)OC)[C@@H]2Nc3ccccc3[C@@]23C[C@@H](C(=O)OC)N(C(=O)NC2CCCC2)C3=N1		inactive: 0.842% [at 8.59 µM]
c1ccc(Nc2ncnc3ccc(-c4ccc5c(c4)OCO5)cc23)cc1	inactive	
COc1ccc(/C=C/C(=O)c2ccc(OC)cc2OC)cc1	inconclusive: 31.6 µM [inhibitor, partial curve, poor fit]	
CCCCCCN1CCN(C2CN(Cc3ccc(C)cc3)S(=O)(=O)C2)CC1 (stereo unspecified)	inconclusive: 14.1 µM [inhibitor, partial curve]	
Cc1cc2c(c(-c3nc4ccccc4s3)c1)OC(CNC(=O)c1occc1C)C2 (stereo unspecified)	inconclusive: 35.5 µM [inhibitor, single point]	
CCC1CN(CCNC(=O)c2cc(C)nn2CC)Cc2cc(OC)ccc2O1 (stereo unspecified)	inconclusive: 3.98 µM [inhibitor, partial curve]	
CCCCCCCc1cc2ccccc2c(=O)o1	inactive	
C=C(c1ccc(C(=O)O)cc1)c1cc2c(cc1C)C(C)(C)CCC2(C)C	inconclusive: 28.2 µM [inhibitor, partial curve]	
C[C@@H]1CC=C[C@@H]2[C@H]1C(=O)N(Cc1ccccc1)[C@H]2c1ccccc1Br	inconclusive: 39.8 µM [inhibitor, single point]	
CC1C(=O)N(Cc2cn(Cc3ccco3)nn2)CCS(=O)(=O)N1Cc1ccc(-c2ccccc2)cc1 (stereo unspecified)	inconclusive: 39.6 µM [inhibitor, single point]	
C[C@]12CCC3C(CC[C@]4(O)CC(O)CC[C@@]34C=O)[C@]1(O)CCC2C1=CC(=O)OC1 (stereo partly specified)	active: 11.2 µM	
CC(C)(C)N1C(=O)[C@@H]2[C@H]3[C@H](O)[C@H](O)CC(=NOCc4ccccc4)[C@H]3CC[C@H]2C1=O		inactive: -3.32% [at 8.59 µM]
COc1cc(-c2ccc(C(F)(F)F)cn2)cc2c1OCCN(S(=O)(=O)C[C@]13CC[C@H](CC1=O)C3(C)C)C2	active: 12.6 µM	
N#CCCN(CC#Cc1ccccc1)OCc1ccccc1		inactive: -21.6% [at 8.59 µM]
O=C(Nc1ccc([N+](=O)[O-])cc1O)Nc1ccccc1Br	inconclusive: 0.501 µM [inhibitor, full curve]	
CO[C@@H]1C[C@@H](C[C@H]2CC[C@H](C)[C@@H]([C@@H](C)C(=O)O)O2)O[C@]2(O[C@](C)([C@H]3CC[C@@](C)(C4OC([C@H]5O[C@@](O)(CO)[C@H](C)C[C@@H]5C)C[C@@H]4C)O3)C[C@H]2C)[C@@H]1C (stereo partly specified)	active: 3.16 µM	
